Among the data in article doi:10.1101/2023.01.06.523011 are binding values, retold here.

Assay [1] deals with T1, GST-tagged CheY, phosphorylated with acetyl-phosphate (C. jejuni) (UniProt P0C635).
T1 sequence (chain, phosphorylated with acetyl phosphate (residue not printed)): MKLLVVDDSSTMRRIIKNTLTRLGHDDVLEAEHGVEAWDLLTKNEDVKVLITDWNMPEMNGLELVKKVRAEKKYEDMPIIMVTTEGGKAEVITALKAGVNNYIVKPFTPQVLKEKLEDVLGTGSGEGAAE
Put plainly: pull-down.

Assay [2] has as its target T2, CheV fused to the T25 adenylate cyclase subunit (C. jejuni) (UniProt Q0PBM1).
T2 sequence: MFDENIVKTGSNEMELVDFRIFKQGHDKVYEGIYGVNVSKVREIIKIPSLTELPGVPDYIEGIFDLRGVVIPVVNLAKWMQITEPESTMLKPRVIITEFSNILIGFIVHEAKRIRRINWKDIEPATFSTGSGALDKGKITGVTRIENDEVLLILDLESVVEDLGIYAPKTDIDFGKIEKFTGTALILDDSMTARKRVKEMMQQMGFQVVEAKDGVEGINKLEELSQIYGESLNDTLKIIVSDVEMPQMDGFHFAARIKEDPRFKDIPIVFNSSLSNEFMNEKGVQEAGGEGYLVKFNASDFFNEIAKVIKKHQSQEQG
Kind of assay: two-hybrid.

In assay [3] the target is T3, CheY fused to the T25 adenylate cyclase subunit (C. jejuni) (UniProt P0C635).
T3 sequence: T1 sequence (chain, phosphorylated with acetyl phosphate (residue not printed))
Put plainly: two-hybrid.

These are yes or no findings as the source states them, for the method shown. A result given as binding can be weak or reduced; the word gives no strength. Sequences can lack the tags named with a protein.

Turning to “His-tagged Cj0700 (from UniProt Q0PAH9) (enzyme)”, in assay [1], the binding result is “binds”.
As for “Cj0700 fused to the T18 adenylate cyclase subunit (from UniProt Q0PAH9) (enzyme)”, the binding result in assay [2] and in assay [3] was “binds” in each case.
